Data source: PubChem BioAssay AID504784 (Drosophila RNAi Screening Center, 2011)
The screen tested about 17,000 reagents; this is an unselected part of those with a known target gene and a result. 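Each column is one replicate's B-score; the combined score over replicates was not deposited, so single values may mislead.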 Names joined by + are all predicted targets of the reagent. Further read-outs or replicates are left out here.

Screen: 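Search for regulators of lipid droplet storage in oleate-fed fly cells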 (primary screen)
System: Drosophila Kc167 embryonic cells
Knock-down reagent: long dsRNA against Drosophila genes, about 250 ng dsRNA per well
Time to read-out: 4 days
Conditions: cells fed 400 µM oleic acid bound to BSA
Read-out: 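Microscope images give a droplet-to-nucleus area ratio, taken as log and converted to a screen-wide B-score; higher values mean greater lipid storage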
Scale: droplet/nuclear area B-score: higher = more stored lipid (overstorage)

CG15449 [DRSC20521] scored droplet/nuclear area B-score, replicate 1 = 0.158.
Depletion of CG16984 [DRSC08500] gave: droplet/nuclear area B-score, replicate 1 = 0.957.
For FarO [DRSC18475], the values are droplet/nuclear area B-score, replicate 1 = 0.042.
Silencing of CG6048 [DRSC18398] resulted in: droplet/nuclear area B-score, replicate 1 = 0.0405.
Against Ttc30 [DRSC02818], the entry reads droplet/nuclear area B-score, replicate 1 = -0.991.
After knock-down of CG15404 [DRSC00418] the results were droplet/nuclear area B-score, replicate 1 = -1.56.
For l(3)L1231 [DRSC16323], the entry reads droplet/nuclear area B-score, replicate 1 = 1.8.
Against Nagk [DRSC15994], the values are droplet/nuclear area B-score, replicate 1 = -1.05.
Depletion of Tmx3 [DRSC10471] gave: droplet/nuclear area B-score, replicate 1 = -2.52.
With knock-down of hrm [DRSC04853], the screen gave droplet/nuclear area B-score, replicate 1 = -0.223.
Against Hs3st-A [DRSC06507] the deposit lists droplet/nuclear area B-score, replicate 1 = 3.37.
After knock-down of Hs3st-A [DRSC06508], the screen gave droplet/nuclear area B-score, replicate 1 = 0.188.
Against Hs3st-A [DRSC06509], the entry reads droplet/nuclear area B-score, replicate 1 = -0.0197.
After knock-down of CG9636 [DRSC16529], the record shows droplet/nuclear area B-score, replicate 1 = -1.88.
Against Ggamma30A [DRSC02715], the values are droplet/nuclear area B-score, replicate 1 = -0.0125.
Knock-down of Ggamma30A [DRSC03331] gave: droplet/nuclear area B-score, replicate 1 = 1.63.
Rpn1 [DRSC11274] showed droplet/nuclear area B-score, replicate 1 = -2.36.
After knock-down of CG3679 [DRSC19346], the screen gave droplet/nuclear area B-score, replicate 1 = -0.866.
After knock-down of CG1138 [DRSC12530], the screen gave droplet/nuclear area B-score, replicate 1 = -0.666.
CG10165 [DRSC02017] showed droplet/nuclear area B-score, replicate 1 = 0.957.
Against CG11584 [DRSC19408] the deposit lists droplet/nuclear area B-score, replicate 1 = -0.112.
With knock-down of sm [DRSC05795] the results were droplet/nuclear area B-score, replicate 1 = -0.498.
sm [DRSC07686] showed droplet/nuclear area B-score, replicate 1 = 0.0144.
Against CG15382 [DRSC00397], the entry reads droplet/nuclear area B-score, replicate 1 = -0.299.
CG42827 + CG42828 [DRSC16116] gave droplet/nuclear area B-score, replicate 1 = 1.28.
Silencing of CG14050 [DRSC18594] resulted in: droplet/nuclear area B-score, replicate 1 = -0.0179.
With knock-down of CG9667 [DRSC16535], the record shows droplet/nuclear area B-score, replicate 1 = -0.0598.
With knock-down of CG11929 [DRSC00339], the screen gave droplet/nuclear area B-score, replicate 1 = -1.
Hinfp [DRSC18484] gave droplet/nuclear area B-score, replicate 1 = 0.552.
Knock-down of Gr2a [DRSC18603] resulted in: droplet/nuclear area B-score, replicate 1 = 0.581.
Against CG15864 [DRSC15122], the entry reads droplet/nuclear area B-score, replicate 1 = 0.0707.
Silencing of Gr36b [DRSC21637] gave: droplet/nuclear area B-score, replicate 1 = 0.06.
Depletion of CG8838 [DRSC00712] gave: droplet/nuclear area B-score, replicate 1 = -0.0261.
Knock-down of Or47b [DRSC07492] came out at: droplet/nuclear area B-score, replicate 1 = 0.0766.
Depletion of CG15912 [DRSC18105] gave: droplet/nuclear area B-score, replicate 1 = -0.324.
With knock-down of Cox11 [DRSC22692] the results were droplet/nuclear area B-score, replicate 1 = -0.93.
Depletion of CG31835 + CG42585 [DRSC01412] came out at: droplet/nuclear area B-score, replicate 1 = 0.0131.
With knock-down of MFS9 [DRSC15560], the record shows droplet/nuclear area B-score, replicate 1 = 0.114.
Depletion of CNT1 + CG13742 [DRSC06413] came out at: droplet/nuclear area B-score, replicate 1 = 0.234.
For Ir21a [DRSC00528] the deposit lists droplet/nuclear area B-score, replicate 1 = 1.09.

Reformatted: entries from further up.
target gene,dsRNA,"droplet/nuclear area B-score, replicate 1"
Gr36b,DRSC21637,0.06
CG8838,DRSC00712,-0.0261
Or47b,DRSC07492,0.0766
CG15912,DRSC18105,-0.324
Cox11,DRSC22692,-0.93
